PMC12752627, “Discovery of a Potent and Selective TEAD Degrader with Durable Degradation Activity” (Advanced Science, 2025)
Further values from the same series stand in other lists.

Tested on: 867 cancer cell lines
Test: PRISM assay (barcoded cell line screening, 5 days);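 also: top test concentration 10 mM in eight-point dilution series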
Format: cell-based
Set-up: scale not given here
Method: The principle of the PRISM assay has been described elsewhere and was conducted as previously outlined by the PRISM team at the Broad Institute.^[ [14], [31] ^] In PRISM (MTS027) experiments, KG‐FP‐003 was tested across 867 different cancer cell lines. Cells were treated with eight concentration gradients, ranging from 4.6 nM to […], in triplicate dilutions over a period of five days. Each plate was treated with 20 µM bortezomib as a positive control and DMSO as a negative control. Three replicate experiments were performed for each compound. The resulting data were analyzed using GraphPad PRISM 9.5.

Measured: KG-FP-003-AUC

CNC(=O)c1cc2c(c(F)c1-c1c(Cl)c(F)cc3c1C[C@@](CN[C@H]1CC[C@H](C(=O)N4CCC(CC5CCN(C(=O)COc6ccc(N7CCC(=O)NC7=O)c(C)c6)CC5)CC4)CC1)(c1ccccc1)O3)[C@@H](O)[C@@H](C)C2 [KG-FP-003]
0.56: M059K_CENTRAL_NERVOUS_SYSTEM, PR300
0.58: MEL285_UVEA, PR300
0.93: LN18_CENTRAL_NERVOUS_SYSTEM, PR500 | LS1034_LARGE_INTESTINE, PR500 | MALME3M_SKIN, PR500 | NCIH596_LUNG, PR500
0.97: LOUNH91_LUNG, PR500 | MCF7_BREAST, PR500 | MDAMB453_BREAST, PR300 | NCIH196_LUNG, PR300 | NCIH322_LUNG, PR500
0.60: MCAS_OVARY, PR500 | NCIH28_PLEURA, PR500
0.46: NCIH226_LUNG, PR500
1.00: LC1SQSF_LUNG, PR500 | LI7_LIVER, PR500 | LN229_CENTRAL_NERVOUS_SYSTEM, PR500 | LN382_CENTRAL_NERVOUS_SYSTEM, PR300 | LOVO_LARGE_INTESTINE, PR500 | LPS141_SOFT_TISSUE, PR300 | LS513_LARGE_INTESTINE, PR500 | LUDLU1_LUNG, PR500 | MDAMB175VII_BREAST, PR500 | MEG01_HAEMATOPOIETIC_AND_LYMPHOID_TISSUE, PR300 | MEWO_SKIN, PR500 | MFE296_ENDOMETRIUM, PR500 | MG63_BONE, PR300 | MG63_BONE, PR500 | MHHNB11_AUTONOMIC_GANGLIA, PR300 | MON_SOFT_TISSUE, PR500 | MP41_UVEA, PR300 | NCIH520_LUNG, PR500 | NCIH647_LUNG, PR300
0.75: MB1_THYROID, PR300 | MCC142_SKIN, PR300 | MDAMB468_BREAST, PR500 | MOLT16_HAEMATOPOIETIC_AND_LYMPHOID_TISSUE, PR300 | NALM6_HAEMATOPOIETIC_AND_LYMPHOID_TISSUE, PR300
0.44: LXF289_LUNG, PR500 | MFE319_ENDOMETRIUM, PR500
0.98: LMSU_STOMACH, PR500 | LN464_CENTRAL_NERVOUS_SYSTEM, PR300 | LS_AUTONOMIC_GANGLIA, PR300 | MELJUSO_SKIN, PR500 | MHHES1_BONE, PR500 | MOLM14_HAEMATOPOIETIC_AND_LYMPHOID_TISSUE, PR300 | MOLP2_HAEMATOPOIETIC_AND_LYMPHOID_TISSUE, PR300 | MS751_CERVIX, PR300 | NCIH441_LUNG, PR300 | NCIH650_LUNG, PR500
0.81: NCIH446_LUNG, PR500
0.84: LOXIMVI_SKIN, PR500 | NCIH522_LUNG, PR500
0.65: NCIH292_LUNG, PR500
0.80: LCLC103H_LUNG, PR500 | MESSA_SOFT_TISSUE, PR500
0.53: MON_SOFT_TISSUE, PR300
0.89: LU99_LUNG, PR500 | MDAPCA2B_PROSTATE, PR300 | MKN45_STOMACH, PR500
0.88: MOLM13_HAEMATOPOIETIC_AND_LYMPHOID_TISSUE, PR300 | NCIH23_LUNG, PR500
0.49: MEL290_UVEA, PR300
0.74: MKN7_STOMACH, PR500 | MKN74_STOMACH, PR500 | MM127_SKIN, PR300
0.57: MMNK1_BILIARY_TRACT, PR300 | MSTO211H_PLEURA, PR500
0.66: MDAMB231_BREAST, PR500
0.91: MC116_HAEMATOPOIETIC_AND_LYMPHOID_TISSUE, PR300 | MCC26_SKIN, PR300 | MDAMB436_BREAST, PR500 | MONOMAC6_HAEMATOPOIETIC_AND_LYMPHOID_TISSUE, PR300 | NCIH524_LUNG, PR300
0.79: NB4_HAEMATOPOIETIC_AND_LYMPHOID_TISSUE, PR300 | NCIH358_LUNG, PR500
0.99: LK2_LUNG, PR500 | LNCAPCLONEFGC_PROSTATE, PR500 | LS180_LARGE_INTESTINE, PR500 | LS411N_LARGE_INTESTINE, PR500 | MDAMB361_BREAST, PR300 | MELHO_SKIN, PR500 | MHHES1_BONE, PR300 | MIAPACA2_PANCREAS, PR500 | NB1_AUTONOMIC_GANGLIA, PR300 | NB1_AUTONOMIC_GANGLIA, PR500 | NCIH157DM_LUNG, PR500 | NCIH460_LUNG, PR500
0.77: MKN1_STOMACH, PR500 | MPP89_PLEURA, PR500
0.83: LNZ308_CENTRAL_NERVOUS_SYSTEM, PR300
0.92: MDAMB435S_SKIN, PR500 | MFE280_ENDOMETRIUM, PR500 | MM1S_HAEMATOPOIETIC_AND_LYMPHOID_TISSUE, PR300 | MOLT3_HAEMATOPOIETIC_AND_LYMPHOID_TISSUE, PR300
0.82: MONOMAC1_HAEMATOPOIETIC_AND_LYMPHOID_TISSUE, PR300
